Test results taken from patent publication US20240280563A1, “SYSTEMS AND METHODS FOR ION CHANNEL KINETICS ANALYSIS IN CLUSTERS OF ION CHANNELS” (Ohio State Innovation Foundation, priority 2023, published 2024).

Amino acid sequences for entries named in this document (tags omitted).
UniProt Q14524, whole entry: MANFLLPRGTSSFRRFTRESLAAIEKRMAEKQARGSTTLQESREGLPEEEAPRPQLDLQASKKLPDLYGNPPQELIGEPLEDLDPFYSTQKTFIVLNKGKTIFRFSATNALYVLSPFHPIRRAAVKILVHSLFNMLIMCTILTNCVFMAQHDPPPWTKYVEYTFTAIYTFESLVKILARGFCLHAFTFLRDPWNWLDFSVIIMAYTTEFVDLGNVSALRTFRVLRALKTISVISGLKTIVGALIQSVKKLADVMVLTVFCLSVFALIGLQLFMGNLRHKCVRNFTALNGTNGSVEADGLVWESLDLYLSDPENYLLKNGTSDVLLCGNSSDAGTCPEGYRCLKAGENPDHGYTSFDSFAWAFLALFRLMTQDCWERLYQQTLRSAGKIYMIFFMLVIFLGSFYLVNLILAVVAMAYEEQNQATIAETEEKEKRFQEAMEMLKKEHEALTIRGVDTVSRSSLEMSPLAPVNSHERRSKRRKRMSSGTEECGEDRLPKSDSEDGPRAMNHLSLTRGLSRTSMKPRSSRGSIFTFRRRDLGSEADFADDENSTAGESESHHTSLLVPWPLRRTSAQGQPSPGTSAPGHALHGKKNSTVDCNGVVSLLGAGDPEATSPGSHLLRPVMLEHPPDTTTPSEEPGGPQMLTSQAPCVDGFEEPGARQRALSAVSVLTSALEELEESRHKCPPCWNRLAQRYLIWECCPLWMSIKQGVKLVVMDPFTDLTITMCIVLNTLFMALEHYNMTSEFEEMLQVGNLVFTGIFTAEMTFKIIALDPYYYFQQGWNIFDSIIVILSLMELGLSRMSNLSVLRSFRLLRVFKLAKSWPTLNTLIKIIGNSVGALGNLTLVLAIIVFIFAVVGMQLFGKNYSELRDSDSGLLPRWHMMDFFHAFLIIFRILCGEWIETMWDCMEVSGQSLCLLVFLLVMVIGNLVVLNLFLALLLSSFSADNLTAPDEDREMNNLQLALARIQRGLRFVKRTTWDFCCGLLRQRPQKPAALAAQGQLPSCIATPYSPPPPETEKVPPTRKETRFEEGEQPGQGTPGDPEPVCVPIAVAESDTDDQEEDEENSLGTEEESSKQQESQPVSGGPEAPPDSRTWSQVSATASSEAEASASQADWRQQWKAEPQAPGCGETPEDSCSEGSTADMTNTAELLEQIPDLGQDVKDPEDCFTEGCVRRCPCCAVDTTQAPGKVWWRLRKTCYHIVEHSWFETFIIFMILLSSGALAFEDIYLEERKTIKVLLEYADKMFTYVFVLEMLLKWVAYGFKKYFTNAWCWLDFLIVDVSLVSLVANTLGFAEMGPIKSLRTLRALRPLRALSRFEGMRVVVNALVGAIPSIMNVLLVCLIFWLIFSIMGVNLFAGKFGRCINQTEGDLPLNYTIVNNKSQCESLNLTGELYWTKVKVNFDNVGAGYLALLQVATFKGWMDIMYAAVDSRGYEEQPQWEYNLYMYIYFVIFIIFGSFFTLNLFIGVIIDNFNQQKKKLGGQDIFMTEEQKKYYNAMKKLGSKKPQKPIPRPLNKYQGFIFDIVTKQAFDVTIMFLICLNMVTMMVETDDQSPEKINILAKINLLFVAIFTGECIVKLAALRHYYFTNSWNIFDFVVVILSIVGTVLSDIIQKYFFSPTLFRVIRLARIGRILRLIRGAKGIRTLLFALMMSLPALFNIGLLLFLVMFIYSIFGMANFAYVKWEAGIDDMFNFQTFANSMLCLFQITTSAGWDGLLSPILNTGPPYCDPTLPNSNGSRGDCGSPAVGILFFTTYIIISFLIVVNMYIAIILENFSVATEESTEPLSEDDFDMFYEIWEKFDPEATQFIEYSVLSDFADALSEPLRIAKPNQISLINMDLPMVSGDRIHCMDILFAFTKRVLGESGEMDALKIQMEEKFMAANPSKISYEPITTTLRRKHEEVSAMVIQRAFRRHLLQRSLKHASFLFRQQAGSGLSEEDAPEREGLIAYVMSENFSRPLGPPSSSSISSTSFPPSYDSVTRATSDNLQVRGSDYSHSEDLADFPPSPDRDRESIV

Biological target: NaV1.5 (Homo sapiens, UniProt Q14524)
Conditions: lidocaine 50 Um, 5 minute incubation; multichannel vs single channel patches; ratio of ensemble average peak current after lidocaine (Ilido) to before (Ictr)

## CCN(CC)CC(=O)Nc1c(C)cccc1C [lidocaine]
  potency of lidocaine lower for channel operating in clusters relative to channels operating outside of clusters: ~40%
